According to publication PMC7819943, “Rice protein-binding microarrays: a tool to detect cis-acting elements near promoter regions in rice”:
The other results are listed elsewhere or left out.

Target: T1, OsSMF1 (Oryza sativa, UniProt Q6ZLB0 1-436)
T1 sequence: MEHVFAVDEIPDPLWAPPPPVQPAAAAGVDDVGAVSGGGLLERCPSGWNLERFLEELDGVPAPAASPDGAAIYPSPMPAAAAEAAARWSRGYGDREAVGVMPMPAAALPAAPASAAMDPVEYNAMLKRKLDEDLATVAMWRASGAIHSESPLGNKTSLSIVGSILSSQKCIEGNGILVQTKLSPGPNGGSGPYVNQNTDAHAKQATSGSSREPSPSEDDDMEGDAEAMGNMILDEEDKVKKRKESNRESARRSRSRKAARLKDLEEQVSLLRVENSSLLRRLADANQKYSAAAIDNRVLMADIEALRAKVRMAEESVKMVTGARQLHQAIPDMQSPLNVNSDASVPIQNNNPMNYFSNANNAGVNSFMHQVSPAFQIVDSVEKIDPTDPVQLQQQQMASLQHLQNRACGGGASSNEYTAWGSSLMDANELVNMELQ
Test: protein-binding microarray (RPBM); PBS, 2% BSA, 51.3 ng/ul salmon testes DNA, 50 uM zinc acetate, 200 nM TF, 25 C, 1 h; high values mean tight binding
Conditions: protein: recombinant; tags: N-terminal polyhistidine and DsRed monomer fusion (pET32a); chain copies: 2; label: CyDye5-dUTP incorporated in the synthesized complementary strand; 3' TTTTT single-stranded linker to array surface; dsDNA, one strand shown
Outline: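 A custom Agilent array was converted to double-stranded form by primer extension with Cy5-dUTP and blocked with 2% BSA. Protein at 200 nM in PBS with 2% BSA, salmon testes DNA and 50 µM zinc acetate was applied for 1 h at 25 °C, followed by washing. The proteins were polyhistidine–DsRed N-terminal fusions of transcription factors, expressed in E. coli BL21-CodonPlus and Ni–NTA-purified. The binding signal is per-feature fluorescence intensity (arbitrary units) from an Axon 4000B scanner.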

Row | Sequence | binding signal
1 | CTACAAATCCCTATCCTGTGATGTCCTACGTACCCCATCACGGAGTCACCTAGTGCAG | 3300 fluorescence intensity (a.u.)
2 | CATTCTTAATGTAAAATATGAATGTAAATGAAATGTATGCCGGAGTCACCTAGTGCAG | 3840 fluorescence intensity (a.u.)
3 | GCCGCCATCCCACAGCTTTCCTAGGGTTAATCCTCCCGCGCGGAGTCACCTAGTGCAG | 3450 fluorescence intensity (a.u.)
4 | TGCCATCCATGCACGTCATACATATATAGAACTTATACAACGGAGTCACCTAGTGCAG | 3310 fluorescence intensity (a.u.)
5 | TCGGTTTCCTCCGCCGCCGCCGCCACCTCCTCCTCCTCCTCGGAGTCACCTAGTGCAG | 3280 fluorescence intensity (a.u.)
6 | GAGAGAAAAGAAAATAATCTGGCTTTAAACATTACACACACGGAGTCACCTAGTGCAG | 3420 fluorescence intensity (a.u.)
7 | TAGCCTTCGCCGTCGCCGCCGCCGCCGCCGCCCTCGCCGTCGGAGTCACCTAGTGCAG | 3280 fluorescence intensity (a.u.)
8 | GCCCGAGGCACGTAGAACCACGCCAAGATGCGTGAACCCCCGGAGTCACCTAGTGCAG | 23000 fluorescence intensity (a.u.)
9 | CGTGGAGGCGTGGATGCGGCGGTGCCAGCGCTGGCCTCGTCGGAGTCACCTAGTGCAG | 3780 fluorescence intensity (a.u.)
10 | TCTATAGGTATTCATGTATGTGCACGTATACGTCTTTCATCGGAGTCACCTAGTGCAG | 4850 fluorescence intensity (a.u.)
11 | GGCCGGCCGCGGCGGGTGGTGGGGCAGGGCCTGACGACGACGGAGTCACCTAGTGCAG | 3500 fluorescence intensity (a.u.)
12 | TCCGCTGGCCACGGCGGCGCCCGCGGCGTACTACCCGGTCCGGAGTCACCTAGTGCAG | 3870 fluorescence intensity (a.u.)
13 | AGCTGGAATCGTGCAGCGCCACGTGGAGGGGTTATTTGCACGGAGTCACCTAGTGCAG | 8000 fluorescence intensity (a.u.)
14 | GTATGAGCATCAGCATCAGATCATCATTGGAATCAAAGCACGGAGTCACCTAGTGCAG | 4040 fluorescence intensity (a.u.)
15 | ATATTAGGTATGACACGTATGTCCACATCAAATCTTCACGCGGAGTCACCTAGTGCAG | 9210 fluorescence intensity (a.u.)
16 | CCCGCCGCCGTGACGCTCACCTGTTGCTCGCACATCCATGCGGAGTCACCTAGTGCAG | 3880 fluorescence intensity (a.u.)
17 | GCTCCCCATCTACGCGCCGCCAAGTGTAGTGATCCCCATCCGGAGTCACCTAGTGCAG | 3340 fluorescence intensity (a.u.)
18 | ATCATCCAATGGACGGTCCAGATCCACCGCATCCACGTATCGGAGTCACCTAGTGCAG | 5690 fluorescence intensity (a.u.)
19 | TATTGTACTAGGTGGGCTGAGCAAAGTCGAGTCAGCTACCCGGAGTCACCTAGTGCAG | 5880 fluorescence intensity (a.u.)
20 | CTTGCACAAGTACAGTACGTGTACATGCATGTATGCTACCCGGAGTCACCTAGTGCAG | 5700 fluorescence intensity (a.u.)
21 | CGTCGCCTCGTCGGCCGACGAGATCCGCGGCCGGCGGAGTCGGAGTCACCTAGTGCAG | 32700 fluorescence intensity (a.u.)

Row | Sequence | binding signal
22 | TTGAGATATAATTGCTACGTAAGTGCCACGTCAATGCCACCGGAGTCACCTAGTGCAG | 21400 fluorescence intensity (a.u.)
23 | CTGATGTGATGACGCCATTTCGCTGACGATTTGTGCCGTTCGGAGTCACCTAGTGCAG | 6620 fluorescence intensity (a.u.)
24 | GTAAAGAACGGACCCATACCCACGTACCCAATGGGTAAGACGGAGTCACCTAGTGCAG | 3150 fluorescence intensity (a.u.)
25 | CCCCGGCTTCCCCGCCGAACCCCTCCCGCCTATTCGTCCGCGGAGTCACCTAGTGCAG | 3400 fluorescence intensity (a.u.)
26 | GTTCAATTTGCTCTCTGACAACTACGTTTCGACAACTACACGGAGTCACCTAGTGCAG | 3530 fluorescence intensity (a.u.)
27 | CAAGGCTGATTTGTCACAACGCTATTGGCCACATAGAGATCGGAGTCACCTAGTGCAG | 27600 fluorescence intensity (a.u.)
28 | TCATTAAATACCCAAAGCCTTATATATATATTCATCTAAACGGAGTCACCTAGTGCAG | 33800 fluorescence intensity (a.u.)
29 | ATTTGCTTCCGCCACGTGCCATATTTGGGTCTATACTGGCCGGAGTCACCTAGTGCAG | 13000 fluorescence intensity (a.u.)
30 | AAGGACTGGGTGAAGCTCAGCCTTGAGCTGCCACCGCGGACGGAGTCACCTAGTGCAG | 4570 fluorescence intensity (a.u.)
31 | CAGAGTTCCGTTCTGAATTTCTGGTGAGTCATCTGCTGAACGGAGTCACCTAGTGCAG | 8920 fluorescence intensity (a.u.)
32 | TTACGCCGCGCTGCTACCACAGTGTAGTCCACCTCAGCTGCGGAGTCACCTAGTGCAG | 5850 fluorescence intensity (a.u.)
33 | GTCACCACTCACCACTCTGCTAAGGCGCGCGTCAGTCAACCGGAGTCACCTAGTGCAG | 3420 fluorescence intensity (a.u.)
34 | GCGCACACACACACACAGATATATATATATATATATATATCGGAGTCACCTAGTGCAG | 4200 fluorescence intensity (a.u.)
35 | GTAAAATTCCTACCAACGCTTCTCAGCTGCCACGTGTACCCGGAGTCACCTAGTGCAG | 24000 fluorescence intensity (a.u.)
36 | GCGCAAGAACGGGATCACCCACGTGCTCAATTGTGTCGGCCGGAGTCACCTAGTGCAG | 3850 fluorescence intensity (a.u.)
37 | TGAAGGATGTGATTAGGAGGAGTCATATCCCATGAATTTTCGGAGTCACCTAGTGCAG | 3960 fluorescence intensity (a.u.)
38 | CATCATATGCATATGTATGTCATATTATCATGACATGCGACGGAGTCACCTAGTGCAG | 4700 fluorescence intensity (a.u.)
39 | GCATACGTGCGTGACCGCGCCATGTGCAGTTTCCATCTTACGGAGTCACCTAGTGCAG | 4110 fluorescence intensity (a.u.)
40 | CCGCTCACATGTGACATGTCACAGCCTTATCTCTTTCTCCCGGAGTCACCTAGTGCAG | 7590 fluorescence intensity (a.u.)
41 | CCAACCTTCAGACCAGCGCCATAACTGCCTCACATCTCACCGGAGTCACCTAGTGCAG | 3200 fluorescence intensity (a.u.)
42 | CTTCTGGACTTATGGCCCATATACCAACTGAATTCAACAACGGAGTCACCTAGTGCAG | 25100 fluorescence intensity (a.u.)

In a second layout: results already given.
Row	Sequence	binding signal
40	CCGCTCACATGTGACATGTCACAGCCTTATCTCTTTCTCCCGGAGTCACCTAGTGCAG	7590 fluorescence intensity (a.u.)
41	CCAACCTTCAGACCAGCGCCATAACTGCCTCACATCTCACCGGAGTCACCTAGTGCAG	3200 fluorescence intensity (a.u.)
